Measurements from patent US11992479B2, “R-fadrozole for use in the treatment of aldostonerism” (priority 2018, dated 2024).
Read-outs that look alike come from different tables or passages of the source. Marks after values point to notes of the source that are not given here.

Assays:
[1] = tested on: 11β-deoxycorticosterone (DOC); settings: mean ± SEM
Description: The diet consisted of 70-80 mEq/day of sodium and 80-90 mEq/day of potassium. Blood samples were obtained daily at the time points indicated in the accompanying Tables for measurements of aldosterone, 11β-deoxycorticosterone (DOC), and potassium (K^+). All of the blood samples were obtained while the subjects were seated in a resting state.
DOC was quantified by an LC-MS/MS methodology. In preparation the steroids were extracted using the Absolute/DQStereo17 Kit from Biocrates Life Sciences AG, Innsbruck, Austria. The steroids were extracted and subjected to LC-MS/MS analysis according to the manufacturer's instructions. The triple quadrupole mass spectrometer (Waters 1-Class 2D UPLC Xevo TQ-S was calibrated using the standards provided in the kit. The assays were performed as provided by the manufacturers.

[2] = tested on: CYP11B2; settings: preclinical studies; cited from earlier work

SMILES	Plasma 11β-deoxycorticosterone (DOC) concentrations ([1]; 4 mg once daily, Day 1, 08:00 h, pretreatment) [ng/mL]	Plasma 11β-deoxycorticosterone (DOC) concentrations ([1]; 4 mg once daily, Day 2, 08:00 h) [ng/mL]	Plasma 11β-deoxycorticosterone (DOC) concentrations ([1]; 4 mg once daily, Day 8, 08:00 h)	Plasma 11β-deoxycorticosterone (DOC) concentrations ([1]; 4 mg once daily, Day 9, 08:00 h)	Plasma 11β-deoxycorticosterone (DOC) concentrations ([1]; 8 mg once daily, Day 1, 08:00 h, pretreatment) [ng/mL]	Plasma 11β-deoxycorticosterone (DOC) concentrations ([1]; 8 mg once daily, Day 2, 08:00 h)	Plasma 11β-deoxycorticosterone (DOC) concentrations ([1]; 8 mg once daily, Day 8, 08:00 h)	Plasma 11β-deoxycorticosterone (DOC) concentrations ([1]; 8 mg once daily, Day 9, 08:00 h)	Plasma 11β-deoxycorticosterone (DOC) concentrations ([1]; 16 mg once daily, Day 1, 08:00 h, pretreatment) [ng/mL]	Plasma 11β-deoxycorticosterone (DOC) concentrations ([1]; 16 mg once daily, Day 2, 08:00 h)	Plasma 11β-deoxycorticosterone (DOC) concentrations ([1]; 16 mg once daily, Day 8, 08:00 h)	Plasma 11β-deoxycorticosterone (DOC) concentrations ([1]; 16 mg once daily, Day 9, 08:00 h)	inhibition of CYP11B2 [2]
N#Cc1ccc([C@H]2CCCc3cncn32)cc1.O=P(O)(O)O [DP13, (R)-(+)-5-(p-cyanophenyl)-5,6,7,8-tetrahydroimidazolium[1,5-a]pyridine dihydrogen phosphate]	0.04 ± 0.01	0.07 ± 0.01	0.14 ± 0.02^c,d ng/mL	0.14 ± 0.02^a,d ng/mL	0.06 ± 0.01	0.13 ± 0.03^b,d ng/mL	0.24 ± 0.03^c,d ng/mL	0.26 ± 0.04^a,d ng/mL	0.05 ± 0.01	0.19 ± 0.05^b,d ng/mL	0.52 ± 0.09^c,d ng/mL	0.48 ± 0.13^a,d ng/mL	–
Cl.N#Cc1ccc([C@H]2CCCc3cncn32)cc1 [FAD 286A, (R)-(+)-5-(p-cyanophenyl)-5,6,7,8-tetrahydroimidazolium[1,5-a]pyridine chloride]	–	–	–	–	–	–	–	–	–	–	–	–	potent inhibitor of CYP11B2
